Measured values reported in the supplement of paper PMC6411743.
± gives the standard deviation of the averaged measurements. Some of the results follow.

Sequences of proteins named here, by UniProt entry; tags and fusion partners are left off. A change or cut given only in a name is not applied to a line headed by its entry.
UniProt O76031, whole entry: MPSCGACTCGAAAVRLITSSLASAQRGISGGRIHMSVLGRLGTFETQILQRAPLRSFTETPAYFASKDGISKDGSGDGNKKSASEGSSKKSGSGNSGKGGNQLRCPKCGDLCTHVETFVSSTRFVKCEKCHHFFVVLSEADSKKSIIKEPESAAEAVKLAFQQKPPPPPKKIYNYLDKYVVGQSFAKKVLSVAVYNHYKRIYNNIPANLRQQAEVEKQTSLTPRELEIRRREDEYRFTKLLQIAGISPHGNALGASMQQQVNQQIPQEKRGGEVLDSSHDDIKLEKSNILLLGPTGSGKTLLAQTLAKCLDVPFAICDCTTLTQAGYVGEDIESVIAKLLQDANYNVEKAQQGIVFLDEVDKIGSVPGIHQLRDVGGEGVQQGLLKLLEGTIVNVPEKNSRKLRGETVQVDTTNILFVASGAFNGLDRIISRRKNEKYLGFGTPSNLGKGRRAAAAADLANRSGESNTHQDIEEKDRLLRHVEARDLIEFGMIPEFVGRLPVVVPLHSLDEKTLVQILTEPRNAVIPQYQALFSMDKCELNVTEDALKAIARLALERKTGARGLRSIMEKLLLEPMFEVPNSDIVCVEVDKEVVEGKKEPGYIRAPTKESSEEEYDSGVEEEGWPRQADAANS
UniProt O95396: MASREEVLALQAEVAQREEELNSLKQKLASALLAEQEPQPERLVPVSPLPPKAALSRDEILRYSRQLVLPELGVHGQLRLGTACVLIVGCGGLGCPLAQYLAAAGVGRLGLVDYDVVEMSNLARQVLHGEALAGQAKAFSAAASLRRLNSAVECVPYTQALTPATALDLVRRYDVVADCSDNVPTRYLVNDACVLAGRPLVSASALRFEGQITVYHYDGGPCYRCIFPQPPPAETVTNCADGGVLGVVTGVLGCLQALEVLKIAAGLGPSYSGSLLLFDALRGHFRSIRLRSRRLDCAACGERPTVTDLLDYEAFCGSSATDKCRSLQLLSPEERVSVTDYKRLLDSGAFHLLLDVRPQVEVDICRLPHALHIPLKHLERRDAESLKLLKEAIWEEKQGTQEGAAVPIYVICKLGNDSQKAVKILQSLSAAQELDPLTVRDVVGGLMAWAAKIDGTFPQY
UniProt O75935, whole entry: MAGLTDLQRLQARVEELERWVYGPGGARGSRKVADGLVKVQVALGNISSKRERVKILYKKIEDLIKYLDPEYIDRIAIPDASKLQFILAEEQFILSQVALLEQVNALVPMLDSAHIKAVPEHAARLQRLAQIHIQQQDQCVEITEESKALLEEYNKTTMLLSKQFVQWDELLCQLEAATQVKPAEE
UniProt O95297: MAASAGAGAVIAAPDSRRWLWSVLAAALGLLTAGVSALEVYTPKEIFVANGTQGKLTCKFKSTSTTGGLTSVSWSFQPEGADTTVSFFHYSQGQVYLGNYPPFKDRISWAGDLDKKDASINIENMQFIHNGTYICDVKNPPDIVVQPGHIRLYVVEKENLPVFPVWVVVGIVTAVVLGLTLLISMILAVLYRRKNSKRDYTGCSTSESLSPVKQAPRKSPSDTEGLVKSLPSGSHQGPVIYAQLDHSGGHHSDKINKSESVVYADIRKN
UniProt O75170: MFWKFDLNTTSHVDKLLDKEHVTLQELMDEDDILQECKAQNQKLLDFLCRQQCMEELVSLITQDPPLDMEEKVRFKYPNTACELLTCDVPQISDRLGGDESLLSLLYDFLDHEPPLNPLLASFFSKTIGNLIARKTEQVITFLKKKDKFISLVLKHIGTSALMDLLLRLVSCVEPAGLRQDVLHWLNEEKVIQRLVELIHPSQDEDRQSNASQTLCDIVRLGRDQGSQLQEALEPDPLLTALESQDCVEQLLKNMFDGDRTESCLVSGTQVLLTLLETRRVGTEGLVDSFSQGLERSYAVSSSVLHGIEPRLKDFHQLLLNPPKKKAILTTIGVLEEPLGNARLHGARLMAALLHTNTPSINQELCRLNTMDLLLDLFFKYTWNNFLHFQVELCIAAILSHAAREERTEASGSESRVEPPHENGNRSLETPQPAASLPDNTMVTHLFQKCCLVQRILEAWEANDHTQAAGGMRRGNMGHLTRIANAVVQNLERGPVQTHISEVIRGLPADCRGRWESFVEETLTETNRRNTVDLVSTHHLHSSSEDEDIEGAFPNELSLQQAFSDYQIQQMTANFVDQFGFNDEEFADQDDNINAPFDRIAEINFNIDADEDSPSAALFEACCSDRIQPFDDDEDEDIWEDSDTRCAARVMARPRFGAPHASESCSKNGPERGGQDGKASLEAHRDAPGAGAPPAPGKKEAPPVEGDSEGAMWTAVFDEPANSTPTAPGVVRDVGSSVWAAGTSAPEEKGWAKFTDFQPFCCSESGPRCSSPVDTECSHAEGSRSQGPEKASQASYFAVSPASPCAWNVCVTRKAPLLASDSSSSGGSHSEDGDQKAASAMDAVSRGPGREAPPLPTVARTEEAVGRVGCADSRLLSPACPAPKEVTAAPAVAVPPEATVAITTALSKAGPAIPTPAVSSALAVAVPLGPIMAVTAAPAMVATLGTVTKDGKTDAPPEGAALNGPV
UniProt O75477: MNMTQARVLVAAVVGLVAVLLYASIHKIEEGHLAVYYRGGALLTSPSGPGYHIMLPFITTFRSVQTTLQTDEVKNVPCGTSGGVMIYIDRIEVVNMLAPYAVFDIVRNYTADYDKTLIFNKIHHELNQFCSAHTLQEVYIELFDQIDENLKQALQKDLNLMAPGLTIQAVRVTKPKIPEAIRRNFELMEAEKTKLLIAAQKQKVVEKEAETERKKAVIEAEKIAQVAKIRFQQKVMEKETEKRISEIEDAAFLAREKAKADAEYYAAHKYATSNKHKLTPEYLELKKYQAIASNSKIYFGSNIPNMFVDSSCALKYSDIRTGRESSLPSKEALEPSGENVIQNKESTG
UniProt O75306, whole entry: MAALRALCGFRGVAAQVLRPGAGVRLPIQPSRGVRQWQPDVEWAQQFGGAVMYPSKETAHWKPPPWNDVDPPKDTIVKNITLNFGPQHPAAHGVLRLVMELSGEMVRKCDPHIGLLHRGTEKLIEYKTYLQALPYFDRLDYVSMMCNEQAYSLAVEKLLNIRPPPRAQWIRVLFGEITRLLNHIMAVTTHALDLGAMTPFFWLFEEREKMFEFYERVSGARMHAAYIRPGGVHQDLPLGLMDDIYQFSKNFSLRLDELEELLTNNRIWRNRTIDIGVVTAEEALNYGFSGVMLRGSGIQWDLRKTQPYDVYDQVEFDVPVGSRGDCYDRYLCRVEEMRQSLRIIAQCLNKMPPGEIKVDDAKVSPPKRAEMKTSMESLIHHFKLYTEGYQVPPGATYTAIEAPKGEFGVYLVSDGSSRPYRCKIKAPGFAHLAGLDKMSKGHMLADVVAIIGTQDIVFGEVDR
UniProt P05387, whole entry: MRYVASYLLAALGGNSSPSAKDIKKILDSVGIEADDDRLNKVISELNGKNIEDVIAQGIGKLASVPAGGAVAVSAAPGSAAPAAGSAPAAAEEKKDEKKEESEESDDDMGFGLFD
UniProt O75964: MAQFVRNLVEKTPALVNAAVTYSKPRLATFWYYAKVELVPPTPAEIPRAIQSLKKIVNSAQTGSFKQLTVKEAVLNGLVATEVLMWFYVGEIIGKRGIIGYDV
UniProt P06729: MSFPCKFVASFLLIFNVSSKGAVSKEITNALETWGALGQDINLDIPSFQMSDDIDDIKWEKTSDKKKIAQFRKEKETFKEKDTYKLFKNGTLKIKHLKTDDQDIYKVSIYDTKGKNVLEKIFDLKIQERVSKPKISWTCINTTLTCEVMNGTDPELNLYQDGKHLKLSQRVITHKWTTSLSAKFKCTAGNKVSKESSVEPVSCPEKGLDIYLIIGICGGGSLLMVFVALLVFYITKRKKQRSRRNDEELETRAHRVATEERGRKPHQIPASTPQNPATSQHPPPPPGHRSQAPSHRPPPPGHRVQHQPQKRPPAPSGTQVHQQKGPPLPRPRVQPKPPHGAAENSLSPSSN
UniProt O95466, whole entry: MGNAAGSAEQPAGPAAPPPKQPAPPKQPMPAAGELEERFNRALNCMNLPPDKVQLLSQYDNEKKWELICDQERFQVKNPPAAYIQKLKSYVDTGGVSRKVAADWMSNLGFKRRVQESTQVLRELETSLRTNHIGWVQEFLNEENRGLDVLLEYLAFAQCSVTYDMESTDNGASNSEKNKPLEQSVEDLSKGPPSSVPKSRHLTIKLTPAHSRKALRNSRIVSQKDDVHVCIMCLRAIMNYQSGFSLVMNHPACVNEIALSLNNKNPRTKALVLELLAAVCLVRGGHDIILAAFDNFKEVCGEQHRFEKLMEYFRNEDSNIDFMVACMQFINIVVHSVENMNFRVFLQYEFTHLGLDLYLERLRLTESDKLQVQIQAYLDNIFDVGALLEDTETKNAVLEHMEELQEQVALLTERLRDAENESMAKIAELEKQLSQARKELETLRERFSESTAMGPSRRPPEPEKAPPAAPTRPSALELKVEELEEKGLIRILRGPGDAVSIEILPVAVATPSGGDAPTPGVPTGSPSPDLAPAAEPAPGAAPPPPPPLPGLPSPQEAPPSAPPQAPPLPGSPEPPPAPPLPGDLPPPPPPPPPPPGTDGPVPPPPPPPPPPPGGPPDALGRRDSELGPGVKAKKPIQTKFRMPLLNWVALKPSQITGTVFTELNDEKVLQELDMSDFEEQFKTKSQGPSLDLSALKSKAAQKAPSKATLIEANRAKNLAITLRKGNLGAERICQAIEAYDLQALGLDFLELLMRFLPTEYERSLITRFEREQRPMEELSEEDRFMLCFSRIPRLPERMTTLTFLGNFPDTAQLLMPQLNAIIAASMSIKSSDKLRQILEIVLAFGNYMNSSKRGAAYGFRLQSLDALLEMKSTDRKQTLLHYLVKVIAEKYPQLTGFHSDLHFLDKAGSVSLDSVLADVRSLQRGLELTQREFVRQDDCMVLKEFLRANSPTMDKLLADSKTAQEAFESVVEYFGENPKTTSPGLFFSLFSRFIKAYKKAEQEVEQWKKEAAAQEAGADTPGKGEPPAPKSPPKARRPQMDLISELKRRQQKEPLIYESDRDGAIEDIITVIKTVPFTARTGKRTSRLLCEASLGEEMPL
UniProt O75791: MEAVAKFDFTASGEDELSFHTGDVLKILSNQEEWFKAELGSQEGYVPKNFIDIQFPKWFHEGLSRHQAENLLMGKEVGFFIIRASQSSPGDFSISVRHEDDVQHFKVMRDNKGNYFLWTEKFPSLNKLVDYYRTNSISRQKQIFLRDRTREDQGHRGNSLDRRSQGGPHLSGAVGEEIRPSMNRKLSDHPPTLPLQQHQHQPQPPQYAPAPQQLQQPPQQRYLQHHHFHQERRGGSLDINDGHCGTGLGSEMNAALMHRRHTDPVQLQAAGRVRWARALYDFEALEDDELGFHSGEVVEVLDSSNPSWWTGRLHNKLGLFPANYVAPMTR
UniProt O96006: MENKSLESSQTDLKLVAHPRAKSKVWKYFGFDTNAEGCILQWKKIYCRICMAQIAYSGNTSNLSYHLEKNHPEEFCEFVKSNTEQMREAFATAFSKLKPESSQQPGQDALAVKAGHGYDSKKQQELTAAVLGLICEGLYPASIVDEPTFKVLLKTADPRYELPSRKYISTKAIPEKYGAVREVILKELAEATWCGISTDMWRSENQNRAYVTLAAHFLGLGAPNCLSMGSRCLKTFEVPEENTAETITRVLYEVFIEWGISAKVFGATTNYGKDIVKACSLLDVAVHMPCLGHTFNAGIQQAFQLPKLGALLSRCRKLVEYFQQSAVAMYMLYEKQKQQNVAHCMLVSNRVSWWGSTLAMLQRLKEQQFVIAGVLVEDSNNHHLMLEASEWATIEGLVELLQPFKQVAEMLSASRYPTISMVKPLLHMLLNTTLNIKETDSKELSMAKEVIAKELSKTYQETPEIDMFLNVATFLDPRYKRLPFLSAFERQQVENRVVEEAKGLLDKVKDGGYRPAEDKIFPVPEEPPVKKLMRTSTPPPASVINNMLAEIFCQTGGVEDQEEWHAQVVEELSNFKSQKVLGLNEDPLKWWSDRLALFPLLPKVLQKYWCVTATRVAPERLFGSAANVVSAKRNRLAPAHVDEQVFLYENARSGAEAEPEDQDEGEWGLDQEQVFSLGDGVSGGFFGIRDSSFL

Compound: Nc1nc2c(ncn2[C@@H]2O[C@H](COP(=O)(O)OP(=O)(O)OP(=O)(O)O)[C@@H](O)[C@H]2O)c(=O)[nH]1 [guanosine triphosphate]
Assay: NP40-soluble protein abundance relative to vehicle (solubility fold change) (ratio); higher = more soluble protein in presence of GTP
Procedure, shortened: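 Each value is a fold change relative to the detergent-processed vehicle, calculated per replicate from vsn-normalised intensities. Jurkat crude lysate received eight concentrations (0.1 to 10 mM) for 10 min at room temperature and 3 min at 37 °C, then was solubilised in 0.8% NP40 with benzonase (60 min, 4 °C). The ultracentrifuged supernatant was TMT-labelled and run by LC-MS/MS in three independent experiments.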

Target	NP40-soluble protein abundance (concentration: 0.1mM)	NP40-soluble protein abundance (concentration: 0.5mM)	NP40-soluble protein abundance (concentration: 1mM)	NP40-soluble protein abundance (concentration: 2mM)	NP40-soluble protein abundance (concentration: 4mM)	NP40-soluble protein abundance (concentration: 6mM)	NP40-soluble protein abundance (concentration: 8mM)	NP40-soluble protein abundance (concentration: 10mM)
CLPX (UniProt O76031)	1.01 ± 0.039	1.01 ± 0.035	0.977 ± 0.038	0.964 ± 0.019	0.957 ± 0.043	0.953 ± 0.03	0.944 ± 0.059	0.934 ± 0.02
MOCS3 (UniProt O95396)	1.05 ± 0.069	1.05 ± 0.1	1.07 ± 0.094	1.07 ± 0.085	1.11 ± 0.11	1.02 ± 0.074	1.03 ± 0.062	1.03 ± 0.089
UniProt O75935 and related entries	0.987 ± 0.23	0.965 ± 0.24	1.2 ± 0.39	1.28 ± 0.38	1.23 ± 0.36	1.23 ± 0.31	1.14 ± 0.36	1.33 ± 0.56
UniProt O95297 and related entries	0.971 ± 0.044	0.937 ± 0.026	0.964 ± 0.061	0.888 ± 0.056	0.933 ± 0.016	0.885 ± 0.011	0.901 ± 0.039	0.911 ± 0.076
UniProt O75170 and related entries	1 ± 0.15	0.979 ± 0.059	1.03 ± 0.12	1 ± 0.043	0.973 ± 0.071	0.992 ± 0.056	0.963 ± 0.065	1.05 ± 0.075
ERLIN1 (UniProt O75477)	1.03 ± 0.064	1.07 ± 0.084	1.12 ± 0.14	1.13 ± 0.12	1.22 ± 0.19	1.2 ± 0.18	1.26 ± 0.29	1.15 ± 0.22
UniProt O75306 and related entries	0.964 ± 0.054	1.08 ± 0.031	0.98 ± 0.044	1.04 ± 0.058	1.02 ± 0.16	1.05 ± 0.091	0.954 ± 0.12	0.98 ± 0.074
RPLP2 (UniProt P05387)	0.957 ± 0.099	0.979 ± 0.062	1.13 ± 0.098	1.06 ± 0.099	1.04 ± 0.037	1.09 ± 0.03	1 ± 0.11	1.2 ± 0.14
UniProt O75964	0.835 ± 0.053	0.821 ± 0.058	0.936 ± 0.052	0.911 ± 0.032	0.899 ± 0.025	0.917 ± 0.024	0.813 ± 0.099	0.868 ± 0.047
UniProt P06729	0.895 ± 0.023	0.902 ± 0.035	0.912 ± 0.02	0.88 ± 0.072	0.852 ± 0.038	0.89 ± 0.053	0.893 ± 0.036	0.903 ± 0.039
UniProt O95466-2	0.974 ± 0.05	0.968 ± 0.035	1.01 ± 0.055	0.979 ± 0.058	0.988 ± 0.051	0.977 ± 0.051	0.999 ± 0.043	0.995 ± 0.046
GRAP2 (UniProt O75791)	1.02 ± 0.014	1.016 ± 0.0083	0.926 ± 0.019	0.907 ± 0.032	0.896 ± 0.041	0.875 ± 0.042	0.879 ± 0.062	0.844 ± 0.084
UniProt O94964-2|O94964 and related entries	1.05 ± 0.11	0.998 ± 0.13	1.139 ± 0.011	1.07 ± 0.025	1.09 ± 0.047	1.03 ± 0.037	1.12 ± 0.072	0.994 ± 0.041
ZBED1 (UniProt O96006)	1.02 ± 0.047	1.03 ± 0.015	1.01 ± 0.04	0.966 ± 0.057	0.962 ± 0.043	0.915 ± 0.052	0.929 ± 0.077	0.901 ± 0.055
UniProt P01112	1.08 ± 0.15	1.06 ± 0.16	1.06 ± 0.037	1.01 ± 0.07	0.982 ± 0.042	1.01 ± 0.085	1.02 ± 0.023	0.971 ± 0.045

Copied from the results shown for reference:
Target	NP40-soluble protein abundance (concentration: 0.1mM)	NP40-soluble protein abundance (concentration: 0.5mM)	NP40-soluble protein abundance (concentration: 1mM)	NP40-soluble protein abundance (concentration: 2mM)	NP40-soluble protein abundance (concentration: 4mM)	NP40-soluble protein abundance (concentration: 6mM)	NP40-soluble protein abundance (concentration: 8mM)	NP40-soluble protein abundance (concentration: 10mM)
UniProt O75306 and related entries	0.964 ± 0.054	1.08 ± 0.031	0.98 ± 0.044	1.04 ± 0.058	1.02 ± 0.16	1.05 ± 0.091	0.954 ± 0.12	0.98 ± 0.074
RPLP2 (UniProt P05387)	0.957 ± 0.099	0.979 ± 0.062	1.13 ± 0.098	1.06 ± 0.099	1.04 ± 0.037	1.09 ± 0.03	1 ± 0.11	1.2 ± 0.14
